The list shows a part of the results.

Protein sequences, listed by entry. Tags and fused reporters are not part of them.
UniProt Q0JBA9, entry or part of it: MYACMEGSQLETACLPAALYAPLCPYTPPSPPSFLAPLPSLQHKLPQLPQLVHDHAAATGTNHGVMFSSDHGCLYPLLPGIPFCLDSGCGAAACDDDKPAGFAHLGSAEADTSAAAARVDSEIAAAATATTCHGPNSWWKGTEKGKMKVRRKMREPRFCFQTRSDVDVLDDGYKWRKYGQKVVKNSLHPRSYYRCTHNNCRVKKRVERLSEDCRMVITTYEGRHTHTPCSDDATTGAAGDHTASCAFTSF

The target of the test is OsWRKY34 (Oryza sativa, UniProt Q0JBA9 1-250). Description: protein-binding microarray (RPBM); PBS, 2% BSA, 51.3 ng/ul salmon testes DNA, 50 uM zinc acetate, 200 nM TF, 25 C, 1 h; high values mean tight binding. To be noted: protein: recombinant; tags: N-terminal polyhistidine and DsRed monomer fusion (pET32a); label: CyDye5-dUTP incorporated in the synthesized complementary strand; 3' TTTTT single-stranded linker to array surface; dsDNA, one strand shown. In short, it runs like this: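 Transcription factors, each fused N-terminally to a polyhistidine tag and DsRed, were expressed in E. coli BL21-CodonPlus and purified on Ni–NTA. A custom Agilent array was made double-stranded by primer extension with Cy5-dUTP and blocked with 2% BSA. It was incubated with 200 nM protein in PBS, 2% BSA, salmon testes DNA and 50 µM zinc acetate at 25 °C for 1 h, then washed. The binding signal is per-feature fluorescence intensity (arbitrary units) read on an Axon 4000B scanner.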
For “AAGTGATGCAGCGAAAGGAATTGGTGGGGAGGAGAAACTGCGGAGTCACCTAGTGCAG”, the binding signal is 8140 fluorescence intensity (a.u.).

Consider “CGCACGGCCGCTACATGCCCACGTCGTTCTCGCCTCGCTACGGAGTCACCTAGTGCAG”, for which the binding signal was 8780 fluorescence intensity (a.u.).

Turning to “CTGATGGTGTTGGTGATGGTGGTGCGGGTGCGGCAGTTGACGGAGTCACCTAGTGCAG”, the binding signal was 13200 fluorescence intensity (a.u.).

Regarding “GCCGGTGGCGCATGGTGATCTTTACTCCCGGTTAGTGTTACGGAGTCACCTAGTGCAG”, the binding signal was 8280 fluorescence intensity (a.u.).

Take “GAACGGTAGAATGATTATTGCTCCTTCAGTTTTCGAGTAACGGAGTCACCTAGTGCAG”: the binding signal is 9810 fluorescence intensity (a.u.).

In the case of “AACTAATCTTCCTCTCTCATCTCAGTTCTGTTCCTTGTTTCGGAGTCACCTAGTGCAG”, the binding signal was 9230 fluorescence intensity (a.u.).

With “AGTATGCTTTTGTGTTGCAACTTGTTTATACATATACTCCCGGAGTCACCTAGTGCAG”, the binding signal is 14700 fluorescence intensity (a.u.).

Take “CTCCCTTTTCCTTTACTATTTCTTTTCTCTTGGCTAGAGTCGGAGTCACCTAGTGCAG”: the binding signal was 8350 fluorescence intensity (a.u.).

For the sequence “ATTACTTACCCCGTTCTATACTTCAACTTTCTCGTTTTCCCGGAGTCACCTAGTGCAG”, the binding signal was 9490 fluorescence intensity (a.u.).

In the case of “TCCCTTGTCGAGAGCTTGTCAAATTTCTGCAGATCTGTTTCGGAGTCACCTAGTGCAG”, the binding signal was 9480 fluorescence intensity (a.u.).

Turning to “GGCTGGGCTTTTTGGGCTTTCTTTGATCTATATTTTGAGACGGAGTCACCTAGTGCAG”, the binding signal was 18200 fluorescence intensity (a.u.).

With “TTCCGATTCCCATCTCTCAGCCAGTTTTCTTGGAGAAGAACGGAGTCACCTAGTGCAG”, the binding signal was 8140 fluorescence intensity (a.u.).

Turning to “GCCTCCATCGATGGATCAGAATTCAGATACAACTCACTTCCGGAGTCACCTAGTGCAG”, the binding signal is 8250 fluorescence intensity (a.u.).

For “GGGTTTTTCTCCCCGCCTCGCTGCTTCGCCTCTCGTTCCCCGGAGTCACCTAGTGCAG”, the binding signal was 10700 fluorescence intensity (a.u.).

For “AATAACAGTAGCCACTTGCCCCACACCTCTGCCGGCGGTTCGGAGTCACCTAGTGCAG”, the binding signal was 9400 fluorescence intensity (a.u.).

As for “CTTACCTGATGATATATTTGTCCGTCACATTGCAAAATTCCGGAGTCACCTAGTGCAG”, the binding signal was 11000 fluorescence intensity (a.u.).

For the sequence “ATTGAGGTTATTCTTTTTCCTACCACAATTTTACTTCAATCGGAGTCACCTAGTGCAG”, the binding signal is 8440 fluorescence intensity (a.u.).

“CTCTCTCTCTCTCTCTCTCTCTCTCTTTCTCTCTCTCTCTCGGAGTCACCTAGTGCAG”: the binding signal was 13700 fluorescence intensity (a.u.).

“GAGGGGTGTTCGATACCTGGTTTTGAAGTTTGAGGTTTGACGGAGTCACCTAGTGCAG”: the binding signal was 10700 fluorescence intensity (a.u.).

In the case of “CTGTGTAATTAGTGTTTTATATTATCTATATTTAATATTTCGGAGTCACCTAGTGCAG”, the binding signal is 8850 fluorescence intensity (a.u.).

As for “GCGCAGTTGGTTGGGTCGTGCGGCTACTTGGCTTGGTTGGCGGAGTCACCTAGTGCAG”, the binding signal is 9210 fluorescence intensity (a.u.).

For “CACGCCCGCCGCGCGGCCCACCTCCGCCTTTATGACCGATCGGAGTCACCTAGTGCAG”, the binding signal was 9890 fluorescence intensity (a.u.).

Turning to “CAAACATGTGCTAAAAAGTCAACGGTGTCAACCATTTTGACGGAGTCACCTAGTGCAG”, the binding signal was 11600 fluorescence intensity (a.u.).

As for “CTCTCCGGTGCGCCGCATCACGAATCGCCCCGAAATCGCCCGGAGTCACCTAGTGCAG”, the binding signal is 8820 fluorescence intensity (a.u.).

With “TTCCTTTGCTTCATGCTTGCATCTGTGTTTCTCTGTCAATCGGAGTCACCTAGTGCAG”, the binding signal was 11800 fluorescence intensity (a.u.).

On to “CACCATCCATCCATCCATCCATCGTCTCATCCTACCACAGCGGAGTCACCTAGTGCAG”, for which the binding signal was 9390 fluorescence intensity (a.u.).

For “CGGCCTGAGGACTAACACCACCTTTGCTCTATCTCGTTTTCGGAGTCACCTAGTGCAG”, the binding signal was 9520 fluorescence intensity (a.u.).

With “TTTTGTTGTGTTTGTTCATAGTGGGATGATTCGAAATCTCCGGAGTCACCTAGTGCAG”, the binding signal is 8960 fluorescence intensity (a.u.).

As for “TTTCATCTCTTCGCAAACCAGCCTTTTTTCCTTTGTCTTTCGGAGTCACCTAGTGCAG”, the binding signal is 12000 fluorescence intensity (a.u.).

Regarding “TTCTTACTTCTTACCGTTTGGAGTGGGCTTACCGCCACCCCGGAGTCACCTAGTGCAG”, the binding signal was 9290 fluorescence intensity (a.u.).

Consider “CTCCTGCTTTGCTCGTATTCTTTTTCTATATAGTATATACCGGAGTCACCTAGTGCAG”, for which the binding signal was 8250 fluorescence intensity (a.u.).

In the case of “ATATATATATATATATATATATATATATATATATATCTGTCGGAGTCACCTAGTGCAG”, the binding signal was 8320 fluorescence intensity (a.u.).

As for “AGGGGAGGAGGAGGCGCGGCGGAGGATGCCGGCGAGGAGGCGGAGTCACCTAGTGCAG”, the binding signal is 8580 fluorescence intensity (a.u.).

Regarding “AGCTTTTTTGTAAAATTGTTAAGTATGTGTATCTATGTAGCGGAGTCACCTAGTGCAG”, the binding signal was 8500 fluorescence intensity (a.u.).

For “CTCTCTCTTATCTTCTCTCTTTCACGTCTCTTTCACATGTCGGAGTCACCTAGTGCAG”, the binding signal is 9670 fluorescence intensity (a.u.).

On to “TATGGACTTACTCCACTAGCATACTACACCTTATGAGCCACGGAGTCACCTAGTGCAG”, for which the binding signal is 9290 fluorescence intensity (a.u.).

Regarding “GTCTGGTTTTGCTACTGGTTCGTCACCTCTTCTCGACGCCCGGAGTCACCTAGTGCAG”, the binding signal was 13100 fluorescence intensity (a.u.).

Regarding “CGACGAACTTGACTATTTGCTTCTTTTACTTCTTAATTTACGGAGTCACCTAGTGCAG”, the binding signal is 10300 fluorescence intensity (a.u.).

As to “CTGGTATTGTGGTTTTCAAGTACGTAGGCCCTGTTTCTTTCGGAGTCACCTAGTGCAG”, the binding signal was 8740 fluorescence intensity (a.u.).

As to “CCTCGGTCTGTTTAGTTCCCAAACAAAATTTTTCATGTTACGGAGTCACCTAGTGCAG”, the binding signal is 9960 fluorescence intensity (a.u.).

For the sequence “AGCTTGTCTGCGCATGCCTGTCAGTGTCAGTGAATATTACCGGAGTCACCTAGTGCAG”, the binding signal was 8710 fluorescence intensity (a.u.).

As for “GCATCTCTGATACACCAACCCTGCATCCTTTTCCAGCCATCGGAGTCACCTAGTGCAG”, the binding signal is 8500 fluorescence intensity (a.u.).

(Values after publication PMC7819943, “Rice protein-binding microarrays: a tool to detect cis-acting elements near promoter regions in rice”.)
